{"source": "patent US10087416B2", "about": "“Culturing pluripotent stem cells” (Agency for Science, Technology and Research, priority 2013, dated 2018)", "test_system": "3iL hESCs", "assay": "Signaling pathway inhibitor treatment of 3iL hESCs (pluripotency markers, colony numbers)", "assay_type": "cell-based, human", "conditions": "treated for 10 days, compared to 3iL hESC control, FIG. 4B", "experimental": "The hESC line H1 (WA-01, passage 28) was used for this study. For routine culture of hESCs in TeSR1 (Stem cell technologies), cells were cultured feeder free on matrigel (BD). Cell media was changed daily. The hESCs were subcultured with 1 mg/ml Dispase (Stem cell technologies) every 5-7 days. 3iL hESCs culture medium contains 1 μM of PD0325901 (Sigma), 2 μM of BIO (Sigma), 2 μM of Dorsomorphin (Sigma) and 10 ng/ml human LIF (Millipore) in TeSR1. 3iL media are prepared fresh and stored at 4° C. for not more than 2 weeks. For treatment with 3iL conditions, hESCs cultured in TeSR1 was treated with 3iL 48 hrs post-seeding. The cells are subsequently subcultured on mitomycin C inactivated mouse fibroblast. Cells are dissociated to single cells using TrypLE (Life Technologies). […]\nFor expression analysis, total RNA was extracted using the TRIzol reagent (Invitrogen) with chloroform and precipitated with isopropanol. […] RNA concentration was determined with the NanoDrop 2000 (Thermo Scientific). 500 ng of RNA was used for each reverse transcription reaction using the SuperScript II Kit (Invitrogen) to produce the cDNA for subsequent quantitative assays. Quantitative real-time PCR (qPCR) analysis was performed with the SYBR Green Master Mix (KAPA) using the ABI PRISM 7900 sequence detection system. […] Samples were multiplexed and sequenced single read 76 bp (HiSeq 2000, Illumina). […]", "note": "For at least one compound, name, drawing or mass did not settle the structure.", "data": [{"smiles": "O=c1cc(N2CCOCC2)oc2c(-c3ccccc3)cccc12", "note": "[LY294002]", "values": [{"measurement": "Pluripotency markers NANOG, OCT4 and TRA-1-60 in 3iL hESCs", "result": "loss of pluripotency markers"}]}]}
